# From patent US12257228B2, “Cardioversion methods using budiodarone” (Xyra, LLC, priority 2023, dated 2025)
# At least one read-out could not be matched to a standard name with certainty.
# Test: Budiodarone concentrations in plasma over time after different single doses (FIG. 1)
# Format: in vivo, patients
# Conditions: single oral dose at or above 400 mg
# Procedure: It is noted that budiodarone concentrations used in the examples below include both the free acid and the free base versions of budiodarone.
# In this example, plasma concentrations of budiodarone were evaluated using different single-dosing amounts of the drug. […] The resulting data was placed on a graph and the data for each concentration provided for both a Cmax for the dose employed as well as a trough value at 6 hours.
compound,measurement,value
"CC[C@H](C)OC(=O)Cc1oc2ccccc2c1C(=O)c1cc(I)c(OCCN(CC)CC)c(I)c1 [budiodarone, (S)-sec-butyl2-(3-(4-(2-(diethylamino)ethoxy)-3,5-diiodobenzoyl)benzofuran-2-yl)acetate]",time to a Cmax greater than 50 ng/mL,≤ 60 min
